Taken from: PubChem BioAssay AID652243 (Drosophila RNAi Screening Center, 2013)

Test: 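Fly genes required for human androgen receptor driven transcription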 (primary screen)
Cells: Drosophila S2R+ cells
Reagents: long dsRNA against Drosophila genes
Timing: 72 h (48 h, then 24 h hormone)
Challenge: synthetic androgen R1881 at 10 nM for 24 h
Measurement: 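Per-well raw luminescence of the androgen-driven firefly reporter and of the Renilla control, two replicates each, without normalisation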
Reading the numbers: firefly reporter light: higher = more light from androgen-responsive reporter; Renilla control light: higher = more constitutive control signal (cell number, transfection)
Call rule: 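Hit when the log firefly-to-Renilla ratio dropped or increased by a fixed fold versus the mean of GFP or LacZ controls across duplicate plates; lowering cut given as 1.5 and as 3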
Calls: active = hit: reporter lowered or raised; inactive = no hit
The screen tested about 24,000 reagents; below is an unselected part of those with a known target gene and a result. Over the whole deposit, 246 (1%) are marked active. 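Plates not normalised; calls are printed but the firefly/Renilla ratio behind them is not deposited; fold cut for lowering reported inconsistently.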 Raw values are not corrected between plates. Not stated in the record: the amount of reagent.

Prp6 [DRSC10724]
- firefly reporter light, replicate 1: 3.96e5
- firefly reporter light, replicate 2: 2.79e5
- Renilla control light, replicate 1: 3.18e6
- Renilla control light, replicate 2: 2.93e6
- call: inactive

Prp6 [DRSC21773]
- firefly reporter light, replicate 1: 4.27e5
- firefly reporter light, replicate 2: 3.84e5
- Renilla control light, replicate 1: 1.67e6
- Renilla control light, replicate 2: 1.87e6
- call: inactive

CG32813 [DRSC17948]
- firefly reporter light, replicate 1: 2.68e5
- firefly reporter light, replicate 2: 3.27e5
- Renilla control light, replicate 1: 4.35e6
- Renilla control light, replicate 2: 4.57e6
- call: inactive

CG32813 [DRSC24734]
- firefly reporter light, replicate 1: 5.92e5
- firefly reporter light, replicate 2: 5.58e5
- Renilla control light, replicate 1: 9.60e5
- Renilla control light, replicate 2: 1.06e6
- call: inactive

dpr1 [DRSC06399]
- firefly reporter light, replicate 1: 1.62e5
- firefly reporter light, replicate 2: 1.59e5
- Renilla control light, replicate 1: 1.69e6
- Renilla control light, replicate 2: 1.84e6
- call: inactive

NFAT [DRSC18991]
- firefly reporter light, replicate 1: 1.23e6
- firefly reporter light, replicate 2: 1.00e6
- Renilla control light, replicate 1: 6.78e5
- Renilla control light, replicate 2: 5.64e5
- call: inactive

NFAT [DRSC19393]
- firefly reporter light, replicate 1: 8.57e5
- firefly reporter light, replicate 2: 1.11e6
- Renilla control light, replicate 1: 5.42e6
- Renilla control light, replicate 2: 5.78e6
- call: inactive

NFAT [DRSC24828]
- firefly reporter light, replicate 1: 4.35e5
- firefly reporter light, replicate 2: 3.84e5
- Renilla control light, replicate 1: 4.03e5
- Renilla control light, replicate 2: 4.30e5
- call: inactive

NFAT [DRSC29663]
- firefly reporter light, replicate 1: 3.35e5
- firefly reporter light, replicate 2: 5.96e5
- Renilla control light, replicate 1: 1.16e6
- Renilla control light, replicate 2: 1.16e6
- call: inactive

Lcp65Af [DRSC11213]
- firefly reporter light, replicate 1: 2.97e5
- firefly reporter light, replicate 2: 2.40e5
- Renilla control light, replicate 1: 2.49e6
- Renilla control light, replicate 2: 2.13e6
- call: inactive

Lcp65Af [DRSC25142]
- firefly reporter light, replicate 1: 4.02e5
- firefly reporter light, replicate 2: 4.24e5
- Renilla control light, replicate 1: 3.71e5
- Renilla control light, replicate 2: 3.92e5
- call: inactive

eIF3g1 [DRSC18427]
- firefly reporter light, replicate 1: 67966
- firefly reporter light, replicate 2: 48999
- Renilla control light, replicate 1: 3.25e5
- Renilla control light, replicate 2: 2.77e5
- call: inactive

eIF3g1 [DRSC29282]
- firefly reporter light, replicate 1: 1.01e6
- firefly reporter light, replicate 2: 1.06e6
- Renilla control light, replicate 1: 9.16e5
- Renilla control light, replicate 2: 8.85e5
- call: inactive

AP-2sigma [DRSC15957]
- firefly reporter light, replicate 1: 3.72e5
- firefly reporter light, replicate 2: 4.10e5
- Renilla control light, replicate 1: 3.75e6
- Renilla control light, replicate 2: 3.69e6
- call: inactive

Reformatted: results already given.
gene knocked down | amplicon | firefly reporter light, replicate 1 | firefly reporter light, replicate 2 | Renilla control light, replicate 1 | Renilla control light, replicate 2 | call
eIF3g1 | DRSC18427 | 67966 | 48999 | 3.25e5 | 2.77e5 | inactive
eIF3g1 | DRSC29282 | 1.01e6 | 1.06e6 | 9.16e5 | 8.85e5 | inactive
